Measured values as given in the supplement of paper PMC7666118.
The list shows a part of the results.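 The calls were made as follows: active = dose-dependent thermal stabilisation significant by F-test of dose-response against flat model at 10% FDR; inactive = not significant.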

The chains behind the UniProt entries cited, without tags or fusion partners. Where a name states a change or a piece, a line headed by the entry shows the natural chain unless it says otherwise.
UniProt Q9Y259: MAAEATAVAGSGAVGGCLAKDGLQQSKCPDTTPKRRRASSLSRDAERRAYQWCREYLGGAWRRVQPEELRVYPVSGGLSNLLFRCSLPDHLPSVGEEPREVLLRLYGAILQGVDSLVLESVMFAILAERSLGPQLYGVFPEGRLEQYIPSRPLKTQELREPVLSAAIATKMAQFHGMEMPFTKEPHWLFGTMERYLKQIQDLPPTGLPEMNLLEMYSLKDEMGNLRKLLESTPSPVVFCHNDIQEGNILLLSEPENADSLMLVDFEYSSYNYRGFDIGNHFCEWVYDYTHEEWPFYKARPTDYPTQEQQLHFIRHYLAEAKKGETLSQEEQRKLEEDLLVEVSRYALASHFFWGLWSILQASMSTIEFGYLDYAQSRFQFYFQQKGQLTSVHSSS
UniProt Q8N4T8: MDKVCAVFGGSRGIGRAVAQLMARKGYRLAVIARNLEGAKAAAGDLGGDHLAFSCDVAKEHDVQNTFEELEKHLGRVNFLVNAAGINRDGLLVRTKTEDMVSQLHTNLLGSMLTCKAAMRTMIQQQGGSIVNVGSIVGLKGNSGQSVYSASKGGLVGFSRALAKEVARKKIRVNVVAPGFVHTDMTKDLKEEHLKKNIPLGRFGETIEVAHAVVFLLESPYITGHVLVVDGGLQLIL
UniProt Q14019: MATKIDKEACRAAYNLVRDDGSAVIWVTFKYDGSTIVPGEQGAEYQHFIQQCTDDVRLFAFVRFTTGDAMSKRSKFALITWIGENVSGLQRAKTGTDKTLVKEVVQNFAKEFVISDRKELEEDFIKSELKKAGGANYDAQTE
UniProt Q16204: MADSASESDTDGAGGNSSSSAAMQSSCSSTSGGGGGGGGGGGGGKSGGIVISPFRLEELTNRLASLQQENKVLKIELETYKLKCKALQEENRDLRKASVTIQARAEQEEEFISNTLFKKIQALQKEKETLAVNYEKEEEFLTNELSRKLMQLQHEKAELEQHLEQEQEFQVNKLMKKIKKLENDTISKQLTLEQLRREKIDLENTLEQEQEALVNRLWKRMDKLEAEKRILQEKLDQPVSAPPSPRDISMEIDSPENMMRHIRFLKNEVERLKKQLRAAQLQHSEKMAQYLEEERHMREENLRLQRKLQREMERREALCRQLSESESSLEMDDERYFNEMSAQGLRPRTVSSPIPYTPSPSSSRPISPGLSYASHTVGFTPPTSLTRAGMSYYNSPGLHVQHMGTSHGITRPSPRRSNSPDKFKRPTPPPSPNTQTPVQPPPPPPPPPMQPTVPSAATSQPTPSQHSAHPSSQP
UniProt Q5JTJ3: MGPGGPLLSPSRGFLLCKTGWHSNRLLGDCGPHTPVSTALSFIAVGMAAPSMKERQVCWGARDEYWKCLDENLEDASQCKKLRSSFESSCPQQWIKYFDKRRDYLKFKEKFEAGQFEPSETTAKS
UniProt Q86X95: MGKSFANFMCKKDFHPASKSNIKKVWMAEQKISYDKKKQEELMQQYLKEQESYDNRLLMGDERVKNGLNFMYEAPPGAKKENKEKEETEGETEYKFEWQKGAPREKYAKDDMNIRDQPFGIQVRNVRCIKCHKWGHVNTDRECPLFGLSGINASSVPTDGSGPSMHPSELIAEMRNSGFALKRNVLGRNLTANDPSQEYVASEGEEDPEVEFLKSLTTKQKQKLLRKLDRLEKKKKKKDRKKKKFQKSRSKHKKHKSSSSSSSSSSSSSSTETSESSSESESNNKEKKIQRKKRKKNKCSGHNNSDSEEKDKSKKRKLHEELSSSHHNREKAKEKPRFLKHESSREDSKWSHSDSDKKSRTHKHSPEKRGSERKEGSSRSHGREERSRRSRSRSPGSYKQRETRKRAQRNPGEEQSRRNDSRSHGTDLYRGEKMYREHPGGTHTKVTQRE
UniProt P83916, whole entry, looked up: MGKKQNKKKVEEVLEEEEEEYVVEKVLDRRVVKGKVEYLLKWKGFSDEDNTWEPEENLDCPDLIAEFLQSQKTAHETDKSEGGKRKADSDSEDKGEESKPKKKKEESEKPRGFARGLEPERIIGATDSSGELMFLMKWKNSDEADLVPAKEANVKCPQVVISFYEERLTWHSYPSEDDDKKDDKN
UniProt Q9NYJ1, whole entry: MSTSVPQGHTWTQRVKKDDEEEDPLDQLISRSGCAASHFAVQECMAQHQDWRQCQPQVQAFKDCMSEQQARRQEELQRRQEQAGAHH
UniProt A6NKD9: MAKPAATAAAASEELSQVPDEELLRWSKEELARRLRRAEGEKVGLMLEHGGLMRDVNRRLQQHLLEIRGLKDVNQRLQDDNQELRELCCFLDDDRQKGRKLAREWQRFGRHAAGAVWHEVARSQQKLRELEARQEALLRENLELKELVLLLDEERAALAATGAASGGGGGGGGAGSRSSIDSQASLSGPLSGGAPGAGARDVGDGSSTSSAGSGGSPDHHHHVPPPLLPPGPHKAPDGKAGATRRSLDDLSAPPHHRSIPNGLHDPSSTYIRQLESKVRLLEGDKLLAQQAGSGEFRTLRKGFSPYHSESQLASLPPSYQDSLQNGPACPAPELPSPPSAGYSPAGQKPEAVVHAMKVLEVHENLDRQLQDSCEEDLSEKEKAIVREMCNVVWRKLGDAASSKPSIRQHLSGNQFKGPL
UniProt Q9P031: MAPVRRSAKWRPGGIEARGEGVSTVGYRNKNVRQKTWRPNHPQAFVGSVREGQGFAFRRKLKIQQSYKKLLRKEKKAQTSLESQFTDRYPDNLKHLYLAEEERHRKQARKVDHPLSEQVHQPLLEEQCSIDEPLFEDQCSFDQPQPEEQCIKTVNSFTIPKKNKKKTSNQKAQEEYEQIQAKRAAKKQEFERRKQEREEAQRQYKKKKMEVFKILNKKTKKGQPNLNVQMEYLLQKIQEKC
UniProt Q69YH5: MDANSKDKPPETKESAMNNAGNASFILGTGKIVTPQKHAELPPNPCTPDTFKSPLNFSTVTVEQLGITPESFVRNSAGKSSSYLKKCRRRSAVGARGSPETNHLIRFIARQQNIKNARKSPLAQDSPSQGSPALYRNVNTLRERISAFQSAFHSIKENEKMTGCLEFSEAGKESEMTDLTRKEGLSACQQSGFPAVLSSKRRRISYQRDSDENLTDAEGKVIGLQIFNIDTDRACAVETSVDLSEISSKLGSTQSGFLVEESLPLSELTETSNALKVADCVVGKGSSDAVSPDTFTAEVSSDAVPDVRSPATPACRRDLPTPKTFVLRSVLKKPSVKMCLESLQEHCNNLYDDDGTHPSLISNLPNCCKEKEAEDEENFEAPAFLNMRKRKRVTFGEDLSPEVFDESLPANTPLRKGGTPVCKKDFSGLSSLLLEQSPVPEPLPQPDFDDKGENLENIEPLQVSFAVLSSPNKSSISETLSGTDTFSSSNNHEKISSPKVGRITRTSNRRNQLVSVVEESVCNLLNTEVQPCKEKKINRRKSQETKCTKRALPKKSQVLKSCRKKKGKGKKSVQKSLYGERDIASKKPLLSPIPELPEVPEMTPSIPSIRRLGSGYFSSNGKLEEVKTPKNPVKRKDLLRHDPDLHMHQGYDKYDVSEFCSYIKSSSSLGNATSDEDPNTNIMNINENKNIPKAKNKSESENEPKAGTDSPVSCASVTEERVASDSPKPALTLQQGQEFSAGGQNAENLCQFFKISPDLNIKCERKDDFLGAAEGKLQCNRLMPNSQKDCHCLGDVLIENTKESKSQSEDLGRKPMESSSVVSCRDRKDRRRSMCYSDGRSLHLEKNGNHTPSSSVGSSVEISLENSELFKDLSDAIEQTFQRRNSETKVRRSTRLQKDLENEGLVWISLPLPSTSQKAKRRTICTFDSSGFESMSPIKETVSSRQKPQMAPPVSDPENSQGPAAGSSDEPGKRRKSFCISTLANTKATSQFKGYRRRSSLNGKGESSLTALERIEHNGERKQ
UniProt A5YKK6, whole entry: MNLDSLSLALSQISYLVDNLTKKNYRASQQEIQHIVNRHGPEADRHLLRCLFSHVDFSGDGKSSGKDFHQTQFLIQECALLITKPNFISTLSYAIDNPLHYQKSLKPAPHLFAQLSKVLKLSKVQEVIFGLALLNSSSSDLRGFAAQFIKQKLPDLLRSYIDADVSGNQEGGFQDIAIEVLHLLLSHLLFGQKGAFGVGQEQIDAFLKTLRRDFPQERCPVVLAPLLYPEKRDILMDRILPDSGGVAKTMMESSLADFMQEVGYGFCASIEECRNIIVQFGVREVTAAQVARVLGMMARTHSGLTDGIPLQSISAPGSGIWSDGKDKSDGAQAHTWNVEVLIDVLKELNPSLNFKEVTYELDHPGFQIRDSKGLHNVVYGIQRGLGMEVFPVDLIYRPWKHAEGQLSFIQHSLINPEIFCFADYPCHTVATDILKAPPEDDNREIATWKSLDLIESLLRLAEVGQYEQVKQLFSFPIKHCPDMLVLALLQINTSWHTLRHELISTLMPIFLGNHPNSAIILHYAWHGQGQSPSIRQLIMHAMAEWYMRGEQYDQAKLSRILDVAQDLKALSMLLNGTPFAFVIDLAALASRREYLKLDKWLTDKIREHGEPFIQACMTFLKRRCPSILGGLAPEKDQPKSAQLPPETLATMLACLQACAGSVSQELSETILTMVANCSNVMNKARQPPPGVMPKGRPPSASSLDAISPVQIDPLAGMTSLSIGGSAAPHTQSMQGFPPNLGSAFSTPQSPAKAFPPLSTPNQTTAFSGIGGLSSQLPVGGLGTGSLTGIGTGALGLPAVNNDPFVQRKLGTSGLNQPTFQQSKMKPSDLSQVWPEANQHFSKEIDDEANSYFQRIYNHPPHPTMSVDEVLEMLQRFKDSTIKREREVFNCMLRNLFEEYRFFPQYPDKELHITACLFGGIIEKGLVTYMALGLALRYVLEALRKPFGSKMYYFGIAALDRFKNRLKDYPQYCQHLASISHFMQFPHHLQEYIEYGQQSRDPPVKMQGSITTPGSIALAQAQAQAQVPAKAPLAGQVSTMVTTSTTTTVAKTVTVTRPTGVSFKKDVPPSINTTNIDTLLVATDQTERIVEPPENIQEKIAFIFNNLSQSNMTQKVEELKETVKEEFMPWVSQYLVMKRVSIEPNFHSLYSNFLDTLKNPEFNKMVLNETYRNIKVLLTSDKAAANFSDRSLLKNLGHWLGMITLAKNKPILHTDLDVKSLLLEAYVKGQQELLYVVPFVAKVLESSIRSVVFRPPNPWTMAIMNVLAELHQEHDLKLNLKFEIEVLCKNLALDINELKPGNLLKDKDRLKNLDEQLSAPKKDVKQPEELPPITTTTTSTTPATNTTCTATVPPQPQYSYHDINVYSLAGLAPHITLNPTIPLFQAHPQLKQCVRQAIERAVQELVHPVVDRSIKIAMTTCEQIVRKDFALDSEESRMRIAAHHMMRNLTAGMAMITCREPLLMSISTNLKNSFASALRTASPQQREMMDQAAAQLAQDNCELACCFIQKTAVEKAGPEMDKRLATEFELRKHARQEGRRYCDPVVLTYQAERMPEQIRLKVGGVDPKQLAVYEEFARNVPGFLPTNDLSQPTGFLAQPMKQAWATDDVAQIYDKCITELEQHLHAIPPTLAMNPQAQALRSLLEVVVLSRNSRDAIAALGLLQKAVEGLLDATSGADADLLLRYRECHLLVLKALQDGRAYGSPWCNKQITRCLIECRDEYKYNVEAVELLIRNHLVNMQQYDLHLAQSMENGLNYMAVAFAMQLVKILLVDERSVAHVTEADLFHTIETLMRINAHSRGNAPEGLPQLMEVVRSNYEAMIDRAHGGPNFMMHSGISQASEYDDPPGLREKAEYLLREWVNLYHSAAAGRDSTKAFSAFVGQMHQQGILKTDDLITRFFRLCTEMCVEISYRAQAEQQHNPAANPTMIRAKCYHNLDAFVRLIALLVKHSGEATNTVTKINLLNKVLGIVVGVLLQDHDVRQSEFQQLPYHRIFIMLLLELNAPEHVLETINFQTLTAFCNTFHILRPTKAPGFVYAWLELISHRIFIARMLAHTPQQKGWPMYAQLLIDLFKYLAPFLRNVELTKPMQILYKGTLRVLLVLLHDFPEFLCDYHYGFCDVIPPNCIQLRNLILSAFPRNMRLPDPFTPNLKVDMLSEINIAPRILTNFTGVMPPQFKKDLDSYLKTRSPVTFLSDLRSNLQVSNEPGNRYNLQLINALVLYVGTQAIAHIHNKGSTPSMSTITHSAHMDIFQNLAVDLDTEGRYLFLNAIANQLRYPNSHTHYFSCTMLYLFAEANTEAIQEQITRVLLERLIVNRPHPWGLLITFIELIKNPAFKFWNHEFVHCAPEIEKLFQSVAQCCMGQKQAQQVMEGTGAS
UniProt Q9BRT8: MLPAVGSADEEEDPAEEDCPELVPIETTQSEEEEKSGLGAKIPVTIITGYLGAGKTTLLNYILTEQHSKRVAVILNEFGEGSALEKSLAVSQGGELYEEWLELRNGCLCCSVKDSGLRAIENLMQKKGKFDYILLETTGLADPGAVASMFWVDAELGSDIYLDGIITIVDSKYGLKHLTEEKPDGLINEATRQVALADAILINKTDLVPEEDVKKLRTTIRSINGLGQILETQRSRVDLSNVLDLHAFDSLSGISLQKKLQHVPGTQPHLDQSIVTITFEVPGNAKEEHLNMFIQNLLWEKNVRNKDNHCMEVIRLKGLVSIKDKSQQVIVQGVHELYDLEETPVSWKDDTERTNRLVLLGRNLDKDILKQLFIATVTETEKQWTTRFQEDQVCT

The targets below were run with Nc1nc2c(ncn2[C@@H]2O[C@H](COP(=O)(O)OP(=O)(O)OP(=O)(O)O)[C@@H](O)[C@H]2O)c(=O)[nH]1 (assay: dose-dependent thermal stabilisation call (2D-TPP, DLPTP, 10% FDR) (binary (1 = stabilised)); higher = stabilised by the compound). Settings: system: Jurkat gel-filtered lysate; concentration range 1-500 µM.

| Target | dose-dependent thermal stabilisation call |
| --- | --- |
| CHN1 (UniProt P15882) | inactive: 0 |
| CDYL (UniProt Q9Y232) | inactive: 0 |
| CHKB (UniProt Q9Y259) | inactive: 0 |
| CASP8 (UniProt Q14790) | inactive: 0 |
| CBR4 (UniProt Q8N4T8) | inactive: 0 |
| CBFB (UniProt Q13951) | inactive: 0 |
| CEP44 (UniProt Q9C0F1) | inactive: 0 |
| COTL1 (UniProt Q14019) | inactive: 0 |
| CCDC6 (UniProt Q16204) | inactive: 0 |
| CASP9 (UniProt P55211) | inactive: 0 |
| CASC3 (UniProt O15234) | inactive: 0 |
| CIRBP (UniProt Q14011) | inactive: 0 |
| CEP131 (UniProt Q9UPN4) | inactive: 0 |
| CASP2 (UniProt P42575) | inactive: 0 |
| COPE (UniProt O14579) | inactive: 0 |
| COA6 (UniProt Q5JTJ3) | inactive: 0 |
| CC2D1B (UniProt Q5T0F9) | inactive: 0 |
| CIR1 (UniProt Q86X95) | inactive: 0 |

Retrieved one by one from the entries so far (2):

| Target | dose-dependent thermal stabilisation call |
| --- | --- |
| CBR4 (UniProt Q8N4T8) | inactive: 0 |
| CDYL (UniProt Q9Y232) | inactive: 0 |

Further records

| Target | dose-dependent thermal stabilisation call |
| --- | --- |
| CCND3 (UniProt P30281) | inactive: 0 |
| CBR3 (UniProt O75828) | inactive: 0 |
| CBX1 (UniProt P83916) | inactive: 0 |
| COA4 (UniProt Q9NYJ1) | inactive: 0 |
| CMPK1 (UniProt P30085) | inactive: 0 |
| CNOT11 (UniProt Q9UKZ1) | inactive: 0 |
| CCDC85C (UniProt A6NKD9) | inactive: 0 |
| CCDC59 (UniProt Q9P031) | inactive: 0 |
| COPB1 (UniProt P53618) | inactive: 0 |
| CDCA2 (UniProt Q69YH5) | inactive: 0 |
| CHD8 (UniProt Q9HCK8) | inactive: 0 |
| CHN2 (UniProt P52757) | inactive: 0 |
| CNOT1 (UniProt A5YKK6) | inactive: 0 |
| CBWD1 (UniProt Q9BRT8) | active: 1 |
| COPG2 (UniProt Q9UBF2) | inactive: 0 |
| CDC34 (UniProt P49427) | inactive: 0 |
| COASY (UniProt Q13057) | active: 1 |
| CLIC4 (UniProt Q9Y696) | inactive: 0 |
